# Data: the supplement of paper PMC3741180, “A Novel High Throughput Biochemical Assay to Evaluate the HuR Protein-RNA Complex Formation” (PLoS ONE, 2013)
# Chains of the proteins cited; added tags and fusions are not shown.
# UniProt Q15717, whole entry: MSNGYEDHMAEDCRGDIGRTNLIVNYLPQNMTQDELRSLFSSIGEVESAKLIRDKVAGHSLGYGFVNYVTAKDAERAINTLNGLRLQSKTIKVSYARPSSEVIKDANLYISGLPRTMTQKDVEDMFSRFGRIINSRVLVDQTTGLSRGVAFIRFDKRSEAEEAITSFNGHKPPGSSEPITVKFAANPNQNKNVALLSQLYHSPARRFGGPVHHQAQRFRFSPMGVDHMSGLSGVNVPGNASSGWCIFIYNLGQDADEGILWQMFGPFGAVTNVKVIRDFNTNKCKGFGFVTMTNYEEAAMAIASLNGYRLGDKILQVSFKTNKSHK
# The list shows a part of the results. Repeats in this data set agree poorly, so a single value says little.
# Molecular target: HuR (ELAVL1) - TNFalpha ARE RNA complex (UniProt Q15717)
# Assay: AlphaScreen HuR-RNA complex signal Z-score relative to positive (Bi-TNF, DMSO) controls (Z-score (SD units of positive control)); higher = more complex signal
# Details: screen stage: primary screen; compound concentration: 25 nM
row,Structure (SMILES),AlphaScreen HuR-RNA complex signal Z-score
1,COc1c(O)cccc1O,1.47
2,COC(=O)CC[C@@H](C)[C@H]1CC[C@H]2[C@@H]3[C@H](O)C[C@@H]4C[C@H](O)CC[C@]4(C)[C@H]3C[C@H](O)[C@]12C,1.76
3,CCCCCCCCCCCCCCCC(=O)O[C@@H]1[C@@H](O)[C@@H](O)[C@@H]([C@H](NC(=O)[C@@H]2C[C@@H](CCC)CN2C)[C@H](C)Cl)O[C@@H]1SC,2.2
4,Cc1cc(CC(=O)O)n(C)c1C(=O)c1ccc(Cl)cc1,-0.657
5,O=C(O)C1=CCCNC1,1.68
6,CC12CCC(CC1)C(C)(C)O2,2
7,CC(C)C[C@@H]1NC(=O)[C@H](CCCN)NC(=O)[C@H](C(C)C)NC(=O)[C@H](Cc2ccc(O)cc2)N[C@@H](CCC(=O)O)C(=O)N[C@@H](CC(N)=O)C(=O)[C@@H](Cc2ccccc2)NC(=O)[C@H](Cc2ccccc2)NC(=O)[C@@H]2CCCN2C(=O)[C@@H](Cc2ccccc2)NC1=O,-1.39
8,C[C@H](CCC(=O)O)[C@H]1CC[C@H]2[C@@H]3CC[C@@H]4C[C@H](O)CC[C@]4(C)[C@H]3C[C@H](O)[C@]12C,1.9
9,COc1ccc2cc(C(C)C(=O)O)ccc2c1 (centres undefined),3.26
10,CN(C)C(=O)Nc1ccc(Cl)c(Cl)c1,2.14
11,O=C(O)CCCc1ccccc1,1.6
12,NC1=NCCN1CC(=O)O,2.05
13,CC1(C)O[C@@H]2C[C@H]3[C@@H]4CCC5=CC(=O)C=C[C@]5(C)[C@@]4(F)[C@@H](O)C[C@]3(C)[C@]2(C(=O)CO)O1,-1.04
14,C[C@@H]1C[C@H]2[C@@H]3CCC4=CC(=O)C=C[C@]4(C)[C@@]3(F)[C@@H](O)C[C@]2(C)[C@@]1(O)C(=O)CO,-3.99
15,OC1(c2ccc(Cl)c(C(F)(F)F)c2)CCN(CCCC(c2ccc(F)cc2)c2ccc(F)cc2)CC1,0.316
16,CC1(O)CC2C(CC1O)C2(C)C (centres undefined),1.79
17,Cc1nnc(NS(=O)(=O)c2ccc(N)cc2)s1,6.83
18,COc1cc(NS(C)(=O)=O)ccc1Nc1c2ccccc2nc2ccccc12,1.55
19,CCN1CCN(c2cc3c(cc2F)c(=O)c(C(=O)O)cn3C2CC2)CC1,0.895
20,C1CCN2C[C@@H]3C[C@@H](CN4CCCC[C@@H]34)[C@H]2C1,0.312
21,CC1CC(OC(=O)C(O)c2ccccc2)CC(C)(C)N1C (centres undefined),3.4
22,OC[C@H]1O[C@@H](n2cnc3c(NCc4ccco4)ncnc32)[C@H](O)[C@@H]1O,2.38
23,Cc1ccc(Cl)c(Nc2ccccc2C(=O)O)c1Cl,1.18
24,CCN1CCN(C(=O)N[C@@H](C(=O)N[C@@H]2C(=O)N3C(C(=O)O)=C(CSc4nnnn4C)CS[C@H]23)c2ccc(O)cc2)C(=O)C1=O,0.263
25,CN(C)CCOc1ccc(/C(=C(/CCCl)c2ccccc2)c2ccccc2)cc1,-1.09
26,CC(C(=O)O)c1ccc(N2Cc3ccccc3C2=O)cc1 (centres undefined),0.211
27,CO[C@@]12[C@H](COC(N)=O)C3=C(C(=O)C(C)=C(N)C3=O)N1C[C@@H]1N[C@@H]12,0.315

row,Structure (SMILES),AlphaScreen HuR-RNA complex signal Z-score
1,C[C@H]1C[C@H]2[C@@H]3CCC4=CC(=O)C=C[C@]4(C)[C@@]3(F)[C@@H](O)C[C@]2(C)[C@@]1(O)C(=O)CO,0.312
2,CC(C)C1=CC2=CC[C@@H]3[C@](C)(CCC[C@@]3(C)C(=O)O)[C@H]2CC1,-0.411
3,O=C(O[C@@H]1Cc2c(O)cc(O)cc2O[C@@H]1c1cc(O)c(=O)c2c(O)c(O)cc([C@H]3Oc4cc(O)cc(O)c4C[C@H]3O)c2c1)c1cc(O)c(O)c(O)c1,1.22
4,COC(=O)CC[C@@H](C)[C@H]1CC[C@H]2[C@@H]3CC[C@@H]4C[C@H](O)CC[C@]4(C)[C@H]3C[C@H](O)[C@]12C,-0.99
5,C[C@@H]1O[C@@H](O[C@H]2[C@H](O[C@H]3CC[C@@]4(C)[C@@H](CC[C@]5(C)[C@@H]4CC=C4[C@@H]6CC(C)(C)CC[C@]6(C(=O)O[C@@H]6O[C@H](CO[C@@H]7O[C@H](CO)[C@@H](O[C@@H]8O[C@@H](C)[C@H](O)[C@@H](O)[C@H]8O)[C@H](O)[C@H]7O)[C@@H](O)[C@H](O)[C@H]6O)CC[C@]45C)[C@]3(C)CO)OC[C@H](O)[C@@H]2O)[C@H](O)[C@H](O)[C@H]1O,-0.0701
6,C[C@H]1CC2C3CCC4=CC(=O)C=C[C@]4(C)[C@@]3(F)[C@@H](O)C[C@]2(C)[C@@]1(O)C(=O)COP(=O)(O)O (some centres undefined),2.01
7,CCOC(=O)CCCCCCCCCCCCC1C=CCC1 (centres undefined),3.89
8,O=c1c(-c2ccc(O)cc2)coc2c([C@@H]3O[C@H](CO)[C@@H](O)[C@H](O)[C@H]3O)c(O)ccc12,1.63
9,O=C(O)C(S)C(S)C(=O)O (centres undefined),1.86
10,CCn1nc(C(=O)O)c(=O)c2cc3c(cc21)OCO3,-2.46
11,Cc1cc(/C=C/c2ccc3cc(N(C)C)ccc3[n+]2C)c(C)n1-c1ccccc1,4.86
12,CC(C)=CCC/C(C)=C/CC/C(C)=C/CC/C(C)=C/CC/C(C)=C/CC/C(C)=C/CC/C(C)=C/CC/C(C)=C/CC/C(C)=C/CO,1.14
13,OC[C@H]1O[C@H]([S-])[C@H](O)[C@@H](O)[C@@H]1O.[Au+],0.312
14,CCCNC(C)C(=O)Nc1ccccc1C (centres undefined),-1.22
15,COc1ccc(CN(CCN(C)C)c2ccccn2)cc1,11.1
16,CC(COc1ccccc1)N(CCCl)Cc1ccccc1 (centres undefined),3.77
17,Nc1ncn([C@@H]2O[C@H](CO)[C@@H](O)[C@H]2O)c(=O)n1,0.698
18,CC(=O)c1ccc(S(=O)(=O)NC(=O)NC2CCCCC2)cc1,-5.89
19,COc1cc(C(=O)O)cc(OC)c1O,0.861
20,Cc1scc2c1N(C(=O)CN1CCN(C)CC1)c1ccccc1NC2=O,0.854
21,Cn1c(=O)c2nc[nH]c2n(C)c1=O,5.34
22,C=C1c2cccc(O)c2C(=O)C2=C(O)[C@]3(O)C(=O)C(C(N)=O)=C(O)[C@@H](N(C)C)[C@@H]3[C@@H](O)[C@H]12,0.116
23,c1ccc(C2CN3CCSC3=N2)cc1 (centres undefined),2.34
24,COc1cc2cc3c4cc(OC)c(OC)cc4cc[n+]3c(C)c2cc1OC,1.79
25,NC1(C(=O)O)CCCC1,2
26,NCCCC[C@H](N[C@@H](CCc1ccccc1)C(=O)O)C(=O)N1CCC[C@H]1C(=O)O,1.48
27,CC(C)(C)NC[C@H](O)COc1nsnc1N1CCOCC1,3.08

# 13 of these compounds, reformatted:
row	Structure (SMILES)	AlphaScreen HuR-RNA complex signal Z-score
23	Cc1ccc(Cl)c(Nc2ccccc2C(=O)O)c1Cl	1.18
24	CCN1CCN(C(=O)N[C@@H](C(=O)N[C@@H]2C(=O)N3C(C(=O)O)=C(CSc4nnnn4C)CS[C@H]23)c2ccc(O)cc2)C(=O)C1=O	0.263
25	CN(C)CCOc1ccc(/C(=C(/CCCl)c2ccccc2)c2ccccc2)cc1	-1.09
26	CC(C(=O)O)c1ccc(N2Cc3ccccc3C2=O)cc1 (centres undefined)	0.211
27	CO[C@@]12[C@H](COC(N)=O)C3=C(C(=O)C(C)=C(N)C3=O)N1C[C@@H]1N[C@@H]12	0.315
1	C[C@H]1C[C@H]2[C@@H]3CCC4=CC(=O)C=C[C@]4(C)[C@@]3(F)[C@@H](O)C[C@]2(C)[C@@]1(O)C(=O)CO	0.312
2	CC(C)C1=CC2=CC[C@@H]3[C@](C)(CCC[C@@]3(C)C(=O)O)[C@H]2CC1	-0.411
3	O=C(O[C@@H]1Cc2c(O)cc(O)cc2O[C@@H]1c1cc(O)c(=O)c2c(O)c(O)cc([C@H]3Oc4cc(O)cc(O)c4C[C@H]3O)c2c1)c1cc(O)c(O)c(O)c1	1.22
4	COC(=O)CC[C@@H](C)[C@H]1CC[C@H]2[C@@H]3CC[C@@H]4C[C@H](O)CC[C@]4(C)[C@H]3C[C@H](O)[C@]12C	-0.99
5	C[C@@H]1O[C@@H](O[C@H]2[C@H](O[C@H]3CC[C@@]4(C)[C@@H](CC[C@]5(C)[C@@H]4CC=C4[C@@H]6CC(C)(C)CC[C@]6(C(=O)O[C@@H]6O[C@H](CO[C@@H]7O[C@H](CO)[C@@H](O[C@@H]8O[C@@H](C)[C@H](O)[C@@H](O)[C@H]8O)[C@H](O)[C@H]7O)[C@@H](O)[C@H](O)[C@H]6O)CC[C@]45C)[C@]3(C)CO)OC[C@H](O)[C@@H]2O)[C@H](O)[C@H](O)[C@H]1O	-0.0701
6	C[C@H]1CC2C3CCC4=CC(=O)C=C[C@]4(C)[C@@]3(F)[C@@H](O)C[C@]2(C)[C@@]1(O)C(=O)COP(=O)(O)O (some centres undefined)	2.01
7	CCOC(=O)CCCCCCCCCCCCC1C=CCC1 (centres undefined)	3.89
8	O=c1c(-c2ccc(O)cc2)coc2c([C@@H]3O[C@H](CO)[C@@H](O)[C@H](O)[C@H]3O)c(O)ccc12	1.63
